PubChem BioAssay AID686937, Drosophila RNAi Screening Center, 2013

Screen: 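Knock-downs that reduce output of a secreted reporter enzyme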 (primary screen)
System: Drosophila S2 cells expressing secreted horseradish peroxidase
Knock-down reagent: long dsRNA against Drosophila genes
Duration: about 5.5 days (5 days dsRNA, then 12 h reporter induction)
Treatment: reporter expression induced after 5 days of dsRNA, read 12 h later; inducer not stated
Measurement: 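After 5 days of dsRNA and 12 h of reporter induction, medium peroxidase read by chemiluminescence and scored as per-plate z-score; higher values mean more reporter released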
Scale: z-score: higher = more reporter secreted into medium
The deposit covers about 23,000 reagents; shown is an unselected part of those with a known target gene and a result. 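Reduced-secretion tags in replicate 1 do not always agree with the z-scores; no criterion for assigning the tags was given.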 A plus sign joins genes that one reagent is predicted to hit. Not all columns of the deposit are shown. Reagent sequences are not shown. Not stated in the record: the amount of reagent.

| gene | amplicon | z-score, replicate 1 | z-score, replicate 2 | z-score, replicate 3 | z-score, replicate 4 |
| --- | --- | --- | --- | --- | --- |
| CG5267 | DRSC06928 | 0.25 | 0.47 | – | – |
| CG4691 | DRSC01950 | 0.43 | 0.05 | – | – |
| CG32095 | DRSC22615 | -0.08 | 0.02 | – | – |
| CG5013 | DRSC15695 | 0.15 | 0.75 | – | – |
| Eps-15 | DRSC04288 | 0.28 | 0.12 | – | – |
| CG15449 | DRSC20521 | 0.7 | 0.46 | – | – |
| CG14022 | DRSC02352 | 0.04 | 0.08 | – | – |
| Pak | DRSC12602 | 0.41 | 0.31 | – | – |
| CG43146 (retired record) | DRSC09254 | 0.5 | 0.53 | – | – |
| Obp83cd | DRSC12267 | 0.14 | 0.29 | – | – |
| tank | DRSC00461 | 0.26 | 0.3 | – | – |
| wda | DRSC15579 | 0.63 | 0.29 | 0.38 | 0.29 |
| wda | DRSC22351 | -0.12 | 0.36 | – | – |
| bbc | DRSC06958 | -0.57 | 0.43 | 0.55 | -0.28 |
| bbc | DRSC22309 | 0.82 | -0.51 | – | – |
| wkd | DRSC15777 | 0.27 | 0.19 | – | – |
| CG12464 | DRSC06156 | 0.27 | 0.26 | – | – |
| CG3632 | DRSC19137 | 0.58 | -0.2 | – | – |
| CG3632 | DRSC19871 | 0.31 | 0.32 | – | – |
| His-Psi:CR31754 | DRSC22051 | 0.66 | -6.2 | – | – |

Records above whose gene name starts with W or w (3):
| gene | amplicon | z-score, replicate 1 | z-score, replicate 2 | z-score, replicate 3 | z-score, replicate 4 |
| --- | --- | --- | --- | --- | --- |
| wda | DRSC15579 | 0.63 | 0.29 | 0.38 | 0.29 |
| wda | DRSC22351 | -0.12 | 0.36 | – | – |
| wkd | DRSC15777 | 0.27 | 0.19 | – | – |

More reagents follow.
| gene | amplicon | z-score, replicate 1 | z-score, replicate 2 | z-score, replicate 3 | z-score, replicate 4 |
| --- | --- | --- | --- | --- | --- |
| sing + Axs | DRSC19333 | 0.12 | 0.42 | – | – |
| Cyp28a5 | DRSC03297 | 0.28 | 0.33 | – | – |
| fand | DRSC06967 | -2.54 | -1.32 | – | – |
| Sema2b | DRSC05609 | 0.69 | 0.47 | – | – |
| Sema2b | DRSC05611 | 0.61 | 0.5 | – | – |
| Sema2b | DRSC06867 | 0.69 | 0.29 | – | – |
| stnB + stnA | DRSC20969 | -1.62 | -0.21 | – | – |
| stnB + stnA | DRSC21112 | 0.72 | 0.32 | – | – |
| stnB + stnA | DRSC21113 | 0.13 | 0.15 | – | – |
| CG33477 | DRSC22934 | -0.39 | -0.5 | – | – |
| His3.3B | DRSC17773 | 0.38 | 0.79 | – | – |
| His3.3B | DRSC18673 | 0.2 | -0.22 | – | – |
| CycK | DRSC03714 | 0.54 | 0.42 | – | – |
| CG6712 | DRSC02981 | 0.53 | 0.12 | 0.29 | -0.67 |
| CG6712 | DRSC21690 | -0.7 | -0.51 | – | – |
| Taf7 | DRSC15445 | -0.63 | -1.38 | – | – |
| CG12481 | DRSC19461 | 0.41 | 0.21 | – | – |
| Jon66Ci | DRSC10772 | 0.13 | 0.4 | – | – |
| Tbc1d22 | DRSC15867 | -0.41 | -0.08 | – | – |
| CG32259 | DRSC08082 | -0.36 | 0.25 | – | – |
| HERC2 | DRSC20566 | 0.49 | 0.19 | – | – |
| sphinx2 | DRSC22188 | -0.05 | -0.12 | – | – |
| rdgBbeta | DRSC07672 | 0.43 | 0.47 | – | – |
| CG15155 | DRSC02456 | 0.33 | 0.02 | – | – |
| wmd | DRSC04436 | 0.59 | 0.54 | – | – |
| CG15035 | DRSC17967 | 0.19 | 0.47 | – | – |
| CG42455 + vnc | DRSC09867 | -1.97 | -1.44 | – | – |
| Taf10b | DRSC00792 | 0.18 | 0.12 | – | – |
| CG31627 | DRSC22143 | -0.18 | 0.21 | – | – |
| CG4390 | DRSC15572 | 0.41 | 0.43 | – | – |
| D12 | DRSC03311 | 0.35 | 0.32 | – | – |
| CG32982 | DRSC01059 | -4.23 | -2.66 | – | – |
| CG32982 | DRSC02677 | 0.58 | 0.63 | – | – |
| CG32982 | DRSC03268 | 0.29 | 0.59 | 0.19 | 0.2 |
| CG32982 | DRSC03269 | 0.54 | 0.36 | – | – |
| CG32982 | DRSC21912 | 0.25 | -0.03 | – | – |
